{"source": "patent US20020042375A1", "about": "“Method of treating cancer” (priority 2000, published 2002)", "origin": "cited, not measured here", "key": {"[1]": {"tested_on": "LNCaP prostate cancer cells"}, "[2]": {"tested_on": "PC-3 prostate cancer cells", "settings": "PC-3 cells"}, "prostate cancer cell": {"tested_on": "prostate cancer cell", "settings": "in vitro"}}, "note": "At least one compound was matched to its structure with a doubt left."}
{"smiles": "Cc1ccc(-c2cc(C(F)(F)F)nn2-c2ccc(S(N)(=O)=O)cc2)cc1", "note": "[celecoxib]", "values": [{"measurement": "apoptosis", "setting": "[1]", "value": "induce apoptosis"}, {"measurement": "apoptosis", "setting": "[2]", "value": "induce apoptosis"}, {"measurement": "prostate cancer cell apoptosis", "setting": "prostate cancer cell", "value": "induce prostate cancer cell apoptosis"}]}
